Holding throughout (assay): log2 fold change, soluble protein after heating vs DMSO (PISA); higher = thermal stabilisation; K562 lysate, 10 uM; active = over 0.2 and 3.5 SD of the protein, either way, in both replicates (recomputed)
Compound in assay [1]: NCC(=O)Nc1ccc(-n2nc(C(F)(F)F)cc2-c2ccc3c(ccc4ccccc43)c2)cc1
The essentials:
(§1)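 Log-two fold change in thermal stability relative to solvent controls is reported from duplicates. For each sample, crude K562 extract from dounce-homogenised pellets in PBS pH 7.4 with 1 mM MgCl2, at 1 mg/mL protein, was treated with 10 μM compound for 30 min. Aliquots heated for 3 min across 48°C-58°C were pooled, brought to 0.5% NP-40 at 4°C and cleared at 21,000xg for 90 min. The supernatant was quantified by TMTpro 16plex LC-MS/MS with channel sums equalised.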

Chains of the proteins cited; added tags and fusions are not shown. Lines headed by an entry give the natural chain unless they say otherwise; changes in a name come on top.
UniProt Q9BU64: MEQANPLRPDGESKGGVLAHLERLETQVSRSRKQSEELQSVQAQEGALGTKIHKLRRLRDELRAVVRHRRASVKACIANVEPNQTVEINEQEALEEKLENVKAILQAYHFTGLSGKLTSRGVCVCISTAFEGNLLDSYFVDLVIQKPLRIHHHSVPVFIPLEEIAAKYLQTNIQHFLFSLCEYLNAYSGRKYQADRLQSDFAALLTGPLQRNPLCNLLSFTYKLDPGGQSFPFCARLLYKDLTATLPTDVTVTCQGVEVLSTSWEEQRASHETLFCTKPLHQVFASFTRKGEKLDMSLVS
UniProt Q5VV42: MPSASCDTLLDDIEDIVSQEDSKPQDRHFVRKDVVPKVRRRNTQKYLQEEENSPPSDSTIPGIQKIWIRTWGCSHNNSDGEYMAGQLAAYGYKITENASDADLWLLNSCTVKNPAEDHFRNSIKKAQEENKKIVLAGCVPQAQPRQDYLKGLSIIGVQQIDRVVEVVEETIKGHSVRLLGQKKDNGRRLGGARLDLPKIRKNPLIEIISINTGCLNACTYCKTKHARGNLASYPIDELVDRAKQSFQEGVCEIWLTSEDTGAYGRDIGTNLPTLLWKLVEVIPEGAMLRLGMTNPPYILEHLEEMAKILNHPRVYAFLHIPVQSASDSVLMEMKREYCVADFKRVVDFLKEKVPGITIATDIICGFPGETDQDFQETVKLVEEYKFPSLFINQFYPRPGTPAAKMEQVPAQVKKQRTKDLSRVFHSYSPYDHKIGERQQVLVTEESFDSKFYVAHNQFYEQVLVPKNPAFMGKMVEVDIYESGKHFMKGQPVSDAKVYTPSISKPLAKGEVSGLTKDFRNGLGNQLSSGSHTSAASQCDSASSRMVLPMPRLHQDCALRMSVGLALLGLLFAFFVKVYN
UniProt Q96SN8: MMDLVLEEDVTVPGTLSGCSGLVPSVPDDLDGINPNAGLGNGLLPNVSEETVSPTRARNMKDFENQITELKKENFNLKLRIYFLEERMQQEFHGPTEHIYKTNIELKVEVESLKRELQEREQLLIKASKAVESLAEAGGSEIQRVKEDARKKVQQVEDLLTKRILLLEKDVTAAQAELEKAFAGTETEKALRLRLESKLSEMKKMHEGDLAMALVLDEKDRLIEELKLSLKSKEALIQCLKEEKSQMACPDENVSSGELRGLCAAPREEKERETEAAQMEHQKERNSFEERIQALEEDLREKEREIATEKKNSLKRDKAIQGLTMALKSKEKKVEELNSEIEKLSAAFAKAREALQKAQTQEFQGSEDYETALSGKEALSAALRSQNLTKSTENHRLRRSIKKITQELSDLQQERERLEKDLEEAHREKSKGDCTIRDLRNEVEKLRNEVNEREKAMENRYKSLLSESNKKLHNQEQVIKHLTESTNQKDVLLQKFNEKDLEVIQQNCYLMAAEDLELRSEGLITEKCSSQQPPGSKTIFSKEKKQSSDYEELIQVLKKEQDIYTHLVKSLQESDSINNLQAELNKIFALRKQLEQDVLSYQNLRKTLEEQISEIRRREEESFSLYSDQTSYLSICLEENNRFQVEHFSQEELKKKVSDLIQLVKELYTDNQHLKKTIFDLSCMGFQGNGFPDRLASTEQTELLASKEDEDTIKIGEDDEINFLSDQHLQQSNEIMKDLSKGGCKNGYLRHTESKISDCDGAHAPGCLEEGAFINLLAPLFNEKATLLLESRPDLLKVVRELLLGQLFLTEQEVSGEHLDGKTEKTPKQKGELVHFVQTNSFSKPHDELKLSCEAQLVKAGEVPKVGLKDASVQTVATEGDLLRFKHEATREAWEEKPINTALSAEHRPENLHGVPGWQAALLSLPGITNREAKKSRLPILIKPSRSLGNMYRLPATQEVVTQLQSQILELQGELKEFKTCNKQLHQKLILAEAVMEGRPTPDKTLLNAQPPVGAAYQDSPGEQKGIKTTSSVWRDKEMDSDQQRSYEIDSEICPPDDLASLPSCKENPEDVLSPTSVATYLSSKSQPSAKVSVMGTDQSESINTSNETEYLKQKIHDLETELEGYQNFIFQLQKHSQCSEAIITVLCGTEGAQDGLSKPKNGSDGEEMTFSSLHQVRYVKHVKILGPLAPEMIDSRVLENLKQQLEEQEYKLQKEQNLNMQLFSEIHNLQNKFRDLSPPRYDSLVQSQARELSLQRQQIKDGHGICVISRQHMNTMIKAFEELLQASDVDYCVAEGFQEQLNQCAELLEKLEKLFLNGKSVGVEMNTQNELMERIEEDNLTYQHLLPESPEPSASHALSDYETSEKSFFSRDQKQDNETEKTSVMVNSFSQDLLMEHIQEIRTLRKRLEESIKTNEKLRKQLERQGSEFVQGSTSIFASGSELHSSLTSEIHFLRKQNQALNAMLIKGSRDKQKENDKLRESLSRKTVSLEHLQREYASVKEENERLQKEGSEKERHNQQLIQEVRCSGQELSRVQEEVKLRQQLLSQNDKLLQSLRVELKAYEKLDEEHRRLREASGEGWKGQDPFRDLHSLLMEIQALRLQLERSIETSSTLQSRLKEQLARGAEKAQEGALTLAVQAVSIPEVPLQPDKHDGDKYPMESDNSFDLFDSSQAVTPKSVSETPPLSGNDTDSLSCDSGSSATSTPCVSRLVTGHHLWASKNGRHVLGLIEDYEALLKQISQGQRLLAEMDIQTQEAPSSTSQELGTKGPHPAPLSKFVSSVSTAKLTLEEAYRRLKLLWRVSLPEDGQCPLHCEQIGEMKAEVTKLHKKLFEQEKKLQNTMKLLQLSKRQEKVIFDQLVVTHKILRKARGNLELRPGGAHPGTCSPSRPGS
UniProt O95674: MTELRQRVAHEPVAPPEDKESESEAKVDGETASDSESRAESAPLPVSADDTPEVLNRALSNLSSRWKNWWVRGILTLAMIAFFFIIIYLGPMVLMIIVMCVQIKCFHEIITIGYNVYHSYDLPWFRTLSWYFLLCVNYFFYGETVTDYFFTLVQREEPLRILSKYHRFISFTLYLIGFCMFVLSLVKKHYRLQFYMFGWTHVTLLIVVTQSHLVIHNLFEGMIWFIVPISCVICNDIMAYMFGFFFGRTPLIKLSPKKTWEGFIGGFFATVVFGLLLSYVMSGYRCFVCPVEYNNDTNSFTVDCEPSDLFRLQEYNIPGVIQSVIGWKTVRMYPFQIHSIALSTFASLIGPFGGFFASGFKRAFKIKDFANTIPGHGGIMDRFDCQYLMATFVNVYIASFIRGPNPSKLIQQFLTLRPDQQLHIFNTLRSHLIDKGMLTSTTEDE
UniProt P06493, whole entry, looked up: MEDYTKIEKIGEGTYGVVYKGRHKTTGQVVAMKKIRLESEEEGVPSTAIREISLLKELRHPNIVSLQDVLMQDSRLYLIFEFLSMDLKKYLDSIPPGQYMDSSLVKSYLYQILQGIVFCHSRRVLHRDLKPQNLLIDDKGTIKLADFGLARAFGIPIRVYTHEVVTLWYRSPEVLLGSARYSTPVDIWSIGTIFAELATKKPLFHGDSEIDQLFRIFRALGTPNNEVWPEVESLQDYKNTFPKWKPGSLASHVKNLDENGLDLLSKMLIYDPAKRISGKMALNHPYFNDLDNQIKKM
UniProt Q7Z7K6: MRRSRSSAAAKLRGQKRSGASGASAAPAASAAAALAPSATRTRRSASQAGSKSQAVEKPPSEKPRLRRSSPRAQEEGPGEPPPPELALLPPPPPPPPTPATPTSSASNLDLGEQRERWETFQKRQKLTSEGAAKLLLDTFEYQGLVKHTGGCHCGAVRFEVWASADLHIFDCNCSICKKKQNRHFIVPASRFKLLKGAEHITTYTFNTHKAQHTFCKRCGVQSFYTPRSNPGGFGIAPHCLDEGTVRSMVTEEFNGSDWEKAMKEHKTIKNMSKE
UniProt Q9H3Q1: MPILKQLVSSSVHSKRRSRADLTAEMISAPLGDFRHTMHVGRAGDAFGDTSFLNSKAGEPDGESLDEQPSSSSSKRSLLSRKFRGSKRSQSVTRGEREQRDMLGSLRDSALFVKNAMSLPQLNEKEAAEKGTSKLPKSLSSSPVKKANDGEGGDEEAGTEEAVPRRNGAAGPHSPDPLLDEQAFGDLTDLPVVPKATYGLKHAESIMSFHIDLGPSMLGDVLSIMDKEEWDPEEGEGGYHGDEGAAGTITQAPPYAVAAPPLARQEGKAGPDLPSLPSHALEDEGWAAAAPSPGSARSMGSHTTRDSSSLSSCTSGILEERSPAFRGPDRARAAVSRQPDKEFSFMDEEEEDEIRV
UniProt Q9NSP4: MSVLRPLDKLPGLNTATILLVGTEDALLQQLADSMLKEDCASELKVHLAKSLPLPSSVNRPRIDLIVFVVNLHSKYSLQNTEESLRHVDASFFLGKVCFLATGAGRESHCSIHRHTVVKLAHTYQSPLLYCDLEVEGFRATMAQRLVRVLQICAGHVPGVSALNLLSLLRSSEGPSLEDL
UniProt Q96MT8: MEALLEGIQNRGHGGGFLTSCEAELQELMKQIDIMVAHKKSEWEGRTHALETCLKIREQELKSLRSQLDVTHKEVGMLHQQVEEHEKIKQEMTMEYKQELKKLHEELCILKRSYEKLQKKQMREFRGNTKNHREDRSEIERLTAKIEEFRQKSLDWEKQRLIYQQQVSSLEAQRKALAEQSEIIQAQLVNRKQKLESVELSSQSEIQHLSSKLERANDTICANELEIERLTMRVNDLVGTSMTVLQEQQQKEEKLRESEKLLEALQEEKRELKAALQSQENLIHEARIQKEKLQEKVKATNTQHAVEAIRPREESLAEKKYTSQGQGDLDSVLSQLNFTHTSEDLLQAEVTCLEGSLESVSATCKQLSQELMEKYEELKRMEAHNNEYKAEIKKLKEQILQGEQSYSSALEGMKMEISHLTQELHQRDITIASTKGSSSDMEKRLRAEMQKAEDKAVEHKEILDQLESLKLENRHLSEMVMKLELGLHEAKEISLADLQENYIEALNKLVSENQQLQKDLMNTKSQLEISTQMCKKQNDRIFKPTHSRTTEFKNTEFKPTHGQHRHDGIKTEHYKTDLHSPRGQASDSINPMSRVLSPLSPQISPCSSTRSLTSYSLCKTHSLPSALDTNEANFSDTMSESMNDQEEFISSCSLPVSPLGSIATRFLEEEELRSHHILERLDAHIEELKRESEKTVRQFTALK
UniProt Q9UQ88: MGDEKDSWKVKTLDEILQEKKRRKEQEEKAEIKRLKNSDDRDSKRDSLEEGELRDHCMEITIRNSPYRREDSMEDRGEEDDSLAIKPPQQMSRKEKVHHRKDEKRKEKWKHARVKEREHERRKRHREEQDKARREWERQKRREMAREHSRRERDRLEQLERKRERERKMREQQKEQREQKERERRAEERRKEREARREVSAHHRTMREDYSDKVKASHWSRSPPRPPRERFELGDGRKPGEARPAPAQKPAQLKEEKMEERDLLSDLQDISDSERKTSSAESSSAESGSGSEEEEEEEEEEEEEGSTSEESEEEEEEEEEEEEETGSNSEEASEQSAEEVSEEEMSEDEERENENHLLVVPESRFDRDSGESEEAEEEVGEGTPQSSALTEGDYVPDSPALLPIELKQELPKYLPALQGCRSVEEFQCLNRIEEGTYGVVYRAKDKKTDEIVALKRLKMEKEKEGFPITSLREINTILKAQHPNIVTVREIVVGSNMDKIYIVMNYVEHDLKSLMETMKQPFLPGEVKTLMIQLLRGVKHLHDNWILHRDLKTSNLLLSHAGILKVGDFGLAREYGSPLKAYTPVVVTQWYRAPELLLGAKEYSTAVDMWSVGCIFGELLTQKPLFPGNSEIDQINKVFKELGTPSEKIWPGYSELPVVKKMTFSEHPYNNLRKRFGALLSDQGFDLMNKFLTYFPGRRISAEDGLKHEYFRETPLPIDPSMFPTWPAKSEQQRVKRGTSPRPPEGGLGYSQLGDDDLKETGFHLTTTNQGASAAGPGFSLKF
UniProt Q5JTW2: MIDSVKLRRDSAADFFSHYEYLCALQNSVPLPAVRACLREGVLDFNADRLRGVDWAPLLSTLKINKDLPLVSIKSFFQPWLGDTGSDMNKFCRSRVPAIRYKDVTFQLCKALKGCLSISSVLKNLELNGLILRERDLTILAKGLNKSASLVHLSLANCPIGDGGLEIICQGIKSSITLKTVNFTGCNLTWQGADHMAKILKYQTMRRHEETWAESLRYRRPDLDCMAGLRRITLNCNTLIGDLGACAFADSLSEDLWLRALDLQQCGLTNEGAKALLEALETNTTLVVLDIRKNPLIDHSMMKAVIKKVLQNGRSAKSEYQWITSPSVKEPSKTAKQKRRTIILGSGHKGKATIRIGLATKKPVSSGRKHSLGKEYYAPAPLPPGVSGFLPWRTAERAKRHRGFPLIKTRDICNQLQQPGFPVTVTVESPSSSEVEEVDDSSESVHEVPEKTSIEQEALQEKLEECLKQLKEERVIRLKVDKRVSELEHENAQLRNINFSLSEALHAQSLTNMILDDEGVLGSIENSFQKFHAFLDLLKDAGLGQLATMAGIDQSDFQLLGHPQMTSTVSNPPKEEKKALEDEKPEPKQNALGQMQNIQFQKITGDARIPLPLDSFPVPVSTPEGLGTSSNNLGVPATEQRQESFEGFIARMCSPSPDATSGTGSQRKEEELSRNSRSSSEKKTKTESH
UniProt A8MT69: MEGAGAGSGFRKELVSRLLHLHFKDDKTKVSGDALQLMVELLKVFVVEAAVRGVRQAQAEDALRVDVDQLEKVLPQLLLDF

Compound in another assay: O=C(CCCCCCC(=O)Nc1ccccc1)NO [vorinostat]
The essentials: as §1

Compound in another assay: O=C(O)c1ccc2c(c1)nc(Nc1cccc(Cl)c1)c1ccncc12 [silmitasertib]
The essentials:
as §1

Compound in assay [2]: O=C1NC(=O)C(c2cnc3ccccn23)=C1c1cn2c3c(cc(F)cc13)CN(C(=O)N1CCCCC1)CC2
In short, it runs like this: as §1

Compound in a further assay: c1cn2cc(-c3ccc4cn[nH]c4c3)nc(Nc3ccc(N4CCOCC4)cc3)c2n1 [entospletinib]
The essentials:
as §1

This passage reports log2 fold change results from the supplement of paper PMC10849652.

Some of the results follow.

For the target CEP192 (UniProt Q8TEP8), the log2 fold change in assay [1] was inactive: 0.034; in the assay with vorinostat, inactive: -0.128; with silmitasertib it was inactive: 0.058; in assay [2], inactive: -0.019; with entospletinib it was inactive: 0.051.

CENPO (UniProt Q9BU64): the log2 fold change was inactive: 0.028 with vorinostat and inactive: 0.079 with silmitasertib.

In the case of CDK4 (UniProt P11802), the log2 fold change in assay [1] was inactive: 0.024; with vorinostat, inactive: -0.112; with silmitasertib it was inactive: 0.101; in assay [2] it was inactive: 0.186; with entospletinib it was inactive: -0.009.

With CDIPT (UniProt O14735), the log2 fold change in assay [1] was inactive: 0.001; with vorinostat it was inactive: 0.04; with silmitasertib, inactive: 0.064; in assay [2], inactive: -0.096; with entospletinib, inactive: 0.

Take CDKAL1 (UniProt Q5VV42): the log2 fold change is inactive: 0.038 in assay [1]; inactive: 0.101 with vorinostat; inactive: -0.02 with silmitasertib; inactive: -0.007 in assay [2]; inactive: -0.013 in the assay with entospletinib.

CDK5RAP2 (UniProt Q96SN8): the log2 fold change in assay [1] is inactive: 0.042; with vorinostat, inactive: -0.156; in the assay with silmitasertib, inactive: 0; in assay [2], inactive: 0.026; with entospletinib, inactive: -0.042.

Take CEP170B (UniProt Q9Y4F5): the results for the log2 fold change (in assay [1]; in assay [2]; with entospletinib) were inactive: 0.049, inactive: 0 and inactive: -0.107, respectively.

As to CDC26 (UniProt Q8NHZ8), the log2 fold change in assay [1] is inactive: -0.122; with vorinostat, inactive: 0.084; with silmitasertib, inactive: -0.012; in assay [2] it was inactive: -0.085; in the assay with entospletinib it was inactive: 0.018.

Turning to CDCA8 (UniProt Q53HL2), the log2 fold change in assay [1] is inactive: 0.066; with vorinostat, inactive: 0.13; with silmitasertib it was inactive: -0.093; with entospletinib it was inactive: 0.112.

With CDS2 (UniProt O95674), the log2 fold change is inactive: 0.007 in assay [1]; inactive: 0.093 with vorinostat; inactive: 0.024 in the assay with silmitasertib; inactive: -0.065 in assay [2]; inactive: -0.028 with entospletinib.

For the target CDK1 (UniProt P06493), the log2 fold change in assay [1] is inactive: 0.029; with vorinostat it was inactive: -0.049; in assay [2], inactive: -0.055; with entospletinib, inactive: 0.006.

CDC42EP1 (UniProt Q00587): the log2 fold change in assay [1] was inactive: -0.036; with vorinostat, inactive: -0.249; with silmitasertib it was inactive: -0.04; in assay [2], inactive: 0.019; with entospletinib, inactive: -0.031.

Take CENPV (UniProt Q7Z7K6): the log2 fold change was inactive: 0.396 in assay [1], inactive: 0.039 in assay [2] and inactive: 0.084 with entospletinib.

CDC42EP4 (UniProt Q9H3Q1): the log2 fold change in assay [1] was inactive: 0; in the assay with vorinostat it was inactive: 0.018; in the assay with silmitasertib, inactive: -0.074; in assay [2] it was inactive: 0.021; with entospletinib it was inactive: 0.051.

Take CDK16 isoform 2 (UniProt Q00536): the log2 fold change in assay [1] was inactive: 0.006; with vorinostat, inactive: 0.055; with silmitasertib, active: 0.446; in assay [2], active: 0.603; with entospletinib, inactive: -0.05.

Take CEP135 (UniProt Q66GS9): the log2 fold change in assay [1] is inactive: -0.029; with vorinostat, inactive: -0.059; in the assay with silmitasertib, inactive: -0.023; in assay [2], inactive: 0.049; with entospletinib, inactive: -0.039.

For CDC42SE1 (UniProt Q9NRR8), the log2 fold change in assay [2] was inactive: -0.044.

For CENPC (UniProt Q03188), the log2 fold change with vorinostat is inactive: 0.069; in the assay with silmitasertib, inactive: 0; with entospletinib it was inactive: 0.006.

As to CDADC1 (UniProt Q9BWV3), the log2 fold change in assay [2] was inactive: -0.052.

On to CENPM (UniProt Q9NSP4), for which the log2 fold change was inactive: -0.069 in the assay with vorinostat, inactive: -0.019 with silmitasertib, inactive: 0.281 in assay [2] and inactive: 0.094 with entospletinib.

For CEP170 isoform 2 (UniProt Q5SW79), the log2 fold change with entospletinib is inactive: -0.098.

As for CEP57 (UniProt Q86XR8), the log2 fold change with vorinostat is inactive: 0.029; in the assay with silmitasertib, inactive: -0.011; with entospletinib, inactive: -0.095.

Turning to CEP63 (UniProt Q96MT8), the log2 fold change with vorinostat is inactive: -0.146; with silmitasertib, inactive: -0.151; with entospletinib, inactive: 0.008.

On to CDK11A (UniProt Q9UQ88), for which the figures for the log2 fold change (with vorinostat; with silmitasertib; in assay [2]) were inactive: -0.329, inactive: 0.049 and inactive: -0.012, respectively.

In the case of CEP164 (UniProt Q9UPV0), the log2 fold change is inactive: -0.007 with vorinostat and inactive: 0.022 with silmitasertib.

Regarding CDC27 (UniProt G5EA36), the log2 fold change with vorinostat was inactive: -0.254; with silmitasertib, inactive: 0.041; in assay [2], inactive: -0.026.

Turning to CDNF (UniProt Q49AH0), the log2 fold change in assay [2] was inactive: 0.092; with entospletinib, inactive: -0.051.

CEP162 (UniProt Q5TB80): the log2 fold change in assay [2] was inactive: 0.192.

As to CERS5 (UniProt Q8N5B7), the log2 fold change with vorinostat was inactive: 0.057; in the assay with silmitasertib it was inactive: 0.006; in assay [2], inactive: 0.01; with entospletinib, inactive: -0.001.

Consider CEP78 isoform 2 (UniProt Q5JTW2), for which the log2 fold change with vorinostat was inactive: -0.071; with silmitasertib, inactive: 0.054; in assay [2], inactive: -0.068.

As for CFL1 (UniProt E9PQB7), in assay [2], the log2 fold change is inactive: -0.068.

On to CDC6 (UniProt Q99741), for which the log2 fold change is inactive: -0.045 in the assay with vorinostat, inactive: 0.026 with silmitasertib and inactive: -0.23 in assay [2].

Regarding CFL1 (UniProt E9PP50), the log2 fold change in the assay with entospletinib was inactive: 0.225.

CDKN3 (UniProt Q16667): the log2 fold change with entospletinib is inactive: -0.036.

For CEP57L1 (UniProt Q8IYX8), the log2 fold change was inactive: -0.23 in the assay with vorinostat, inactive: 0.133 in the assay with silmitasertib, inactive: -0.044 in assay [2] and inactive: -0.029 with entospletinib.

CEP72 (UniProt Q9P209): the results for the log2 fold change with vorinostat and with silmitasertib were inactive: -0.026 and inactive: 0.12, respectively.

In the case of CENPX (UniProt A8MT69), the log2 fold change in assay [2] is inactive: -0.128.

Consider CDC25A (UniProt P30304), for which the results for the log2 fold change (in the assay with vorinostat; with silmitasertib; in assay [2]) were active: -1.01, inactive: 0.084 and inactive: -0.172, respectively.

Turning to CDT1 (UniProt Q9H211), the log2 fold change with vorinostat is inactive: -0.295; with silmitasertib it was inactive: 0.009; in assay [2], inactive: 0.052; with entospletinib, inactive: -0.046.

Take CEP68 (UniProt Q76N32): the log2 fold change with vorinostat is inactive: -0.094; with silmitasertib, inactive: 0.021; with entospletinib, inactive: -0.172.
